Data on one sequence can be found in paper PMC5996148.

The other results are listed elsewhere or left out. For some assays here: The exact form of the protein is not confirmed.

Holding throughout (experiment): protein microarray (ProtoArray v5.0), streptavidin-Alexa Fluor 647
Holding throughout (details): 3'-biotin; 20 mM Tris (pH 7.5), 5 mM MgCl2, 100 mM KCl, 0.1% Tween-20, A/T-rich and random oligonucleotide blockers; temperature not stated; high values mean tight binding

The subject of assay [1] is 40S ribosomal protein SA (human).
Assay [2] relates to 5 (human).
For assay [3], the system named is 60S ribosomal protein L29 (human).
Assay [4] deals with A-kinase anchor protein 14 (human).
Assay [5] relates to A.T hook DNA-binding motif-containing protein 1 (human).
In assay [6] the test system is AATF (human).
Assay [7] concerns ABHD4 (human).
Assay [8] deals with ACAD9 (human).
The test system of assay [9] is ACAN (human).
In assay [10] the target is T1, ACBD6 (UniProt Q9BR61).
T1 sequence: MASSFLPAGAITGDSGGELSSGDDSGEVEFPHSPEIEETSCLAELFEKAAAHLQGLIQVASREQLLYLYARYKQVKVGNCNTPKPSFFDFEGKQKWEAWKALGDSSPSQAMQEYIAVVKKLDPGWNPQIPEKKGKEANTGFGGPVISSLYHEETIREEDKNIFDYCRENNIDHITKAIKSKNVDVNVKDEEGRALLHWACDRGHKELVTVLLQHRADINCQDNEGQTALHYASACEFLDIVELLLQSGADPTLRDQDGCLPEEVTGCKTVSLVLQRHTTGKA

Assay [11] relates to ACP1 (human).
The test system of assay [12] is ACPP (human).
For assay [13], the system named is ACSL5 (human).
In assay [14] the test system is ACTN2 (human).
Assay [15] has as its system ACTN4 (human).
Assay [16] deals with ACY1 (human).
In assay [17] the test system is ACY3 (human).
Assay [18] has as its system ADD1 (human).
Assay [19] deals with ADI1 (human).
The test system of assay [20] is ADP-ribosylation factor-like protein 6-interacting protein 6 (human).

On to “GGTGACAGGGGTATGGGGAGGGG [G4-2 biotinylated (Ct1)]”, for which the binding signal is -0.383 z-score in assay [1]; -0.375 z-score in assay [2]; 4.9 z-score in [3]; -0.384 z-score in [4]; -0.39 z-score in assay [5]; -0.375 z-score in assay [6]. Besides, the binding signal in assay [7] is -0.366 z-score; in [8], -0.373 z-score; in [9], -0.377 z-score; in assay [10], -0.379 z-score; in [11], -0.389 z-score; in [12], -0.391 z-score. Further, the binding signal is -0.37 z-score in assay [13]; -0.391 z-score in assay [14]; -0.384 z-score in assay [15]; -0.394 z-score in assay [16]; -0.389 z-score in assay [17]; -0.402 z-score in assay [18]. Also, the figures for the binding signal in [19] and in assay [20] were -0.401 z-score and -0.358 z-score, respectively.
